According to article doi:10.1101/2024.11.16.623920:
No constants are given. Whether binding was seen depends on the method and setting. In cells and extracts the contact can be indirect. For some assays here: Binding calls can cover weak binding; strength is not graded here. Tags and fused reporters may be left off the sequences shown.

Columns and labels:
[1] = target: CaGpi3 (C. albicans Gpi3, GPI-GnT subunit) (C. albicans (endogenous in BWP17-derived cells)); assay: co-IP
[2] = target: CaGpi8 (C. albicans Gpi8, subunit of the GPI-transamidase) (C. albicans (endogenous in the cells)); assay: FRET or BRET

B1: CaArv1-V5 (C. albicans Arv1 tagged with V5 at its C-terminus) (protein, UniProt Q5ANH2 1-296)
chain: MICIECGYSNIDCLYSKYKSDYIKLSVCPECNKIADKYIEYDSVILFLDILLLKRQAYKHLAYNLTEMEMEIGSSTNFHINDNTNFKFFHTYRKLMKLIFMILSFEVYLTWANEEKLLIHSQLINLIFNQSVVYQYLFFIIKSSLENLILNLSLQLILRLGYKWGQGPQKINGNIRDKELFGYKTSVLLVTTMVSGSIRLFPILMFIWPYDNISITKPLINLIAFINIVEALRVVTSLGYVELILSLAFSIVIRNIVSKSLLVLIVRLFLDFNFTEVYYNEMYQLYSQIQTYIRWI
- binding [1]: binds
- binding [2]: no binding (tested: r > 10 nm)
